Assay results: the supplement of paper PMC3334620
In all, about 33,000 sequences were measured (“E-score (-0.5 to 0.5)”: median about -8e-05, highest 2% from about 0.23 on). The list shows a part of the results.

Molecular target: T1, Nrg2 (UniProt P38082)
T1 sequence: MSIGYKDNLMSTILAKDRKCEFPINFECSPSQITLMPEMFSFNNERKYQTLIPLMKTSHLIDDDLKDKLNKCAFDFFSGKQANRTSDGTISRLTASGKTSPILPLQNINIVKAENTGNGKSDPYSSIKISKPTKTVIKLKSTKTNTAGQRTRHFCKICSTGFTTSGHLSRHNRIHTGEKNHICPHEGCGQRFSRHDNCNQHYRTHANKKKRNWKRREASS
Assay: PBM E-score (8-mer binding enrichment) (E-score (-0.5 to 0.5)); higher = stronger / more preferred TF binding
Conditions: protein concentration: 100 nM; construct: GST-full length
Experimental: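 Universal 'all 10-mer' protein binding microarrays (Agilent AMADID 015681) probed with GST-tagged S. cerevisiae TFs (full-length or DBD) made by in vitro transcription/translation (PURExpress), about 100-200 nM. Bound TF was detected with fluorescent anti-GST. Each ungapped 8-mer (which stands for itself and its reverse complement) is scored by the PBM enrichment score (E-score), a modified Wilcoxon-Mann-Whitney statistic from -0.5 to +0.5, computed with the Universal PBM Analysis Suite. Scale: above 0.35 generally sequence-specific binding.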

Sequence | PBM E-score
GTGTGGAA | -0.0645
GAAAGGAA | 0.0899
AGGTGATG | -0.158
TAGTATCA | 0.283
CTACATCA | 0.0792
GCACTGTA | 0.15
CTGACCAG | -0.0108
AGCGAGAG | 0.0268
ATAGACGG | 0.0402
AGTAGAGG | -0.151
GCCACGAC | 0.0517
AGTTACGC | -0.157
TAACTGTA | -0.0145
ATATCTGC | 0.0558
ACGTCCCT | 0.117
ACGATAAA | -0.168
GCCTTGGA | 0.0174
AACTCTCT | -0.028
ACATGTAA | 0.0879
GTTGACTA | -0.0973
AAAGTAGG | 0.112
AGAGGCTG | -0.272
TAGGCCCA | -0.175
CTCAAACA | 0.113
ACTGCCCG | 0.00041

Sequence | PBM E-score
AGCGCTTA | 0.131
ATGTGAAC | 0.0728
ACGACAAC | 0.196
TAAATTAA | 0.139
CCTTGATA | 0.117
ATTGCACC | 0.0876
GGCGCTTA | -0.124
ATCTAGCA | 0.216
ATATTAAT | 0.286
CACCATTA | -0.0449
ACTGCTTA | -0.176
ATATGACG | 0.0293
CATCTCGG | 0.085
AGAGCCAG | -0.195
AAATCGTC | 0.00585
ACCACAGA | 0.0044
AACGCTTC | -0.0033
AACCACCA | 0.00348
ACCGCGGG | 0.171
CTAAAGAA | 0.01
AGCCGCAT | 0.0608
ATGAAAAG | 0.0798
ACATACTA | 0.142
CTCTAGAC | -0.27
ACTACCGG | -0.171

Sequence | PBM E-score
GCAATGGA | -0.0172
AAACAAGT | 0.0802
CTGGGGCC | -0.146
AGCCCCGC | -0.045
GATGCCCC | -0.142
AAGTGGCA | 0.00942
TCGCAACA | -0.00912
ATTGACCA | 0.0894
GATTAGCA | 0.117
CTGCCTCA | -0.149
GTTAAACA | -0.0195
CGCTAATA | 0.135
ACCGTGAT | -0.0559
ACCGGGTG | 0.0298
ACCTGACG | -0.0678
GCACCCCC | -0.415
AGCAACCT | 0.0551
CTGACCAA | 0.108
TGGTCACA | 0.0019
GGGGAACC | -0.306
AGCAGTAC | 0.0383
CTCTCGTA | 0.0224
ACCACGTC | -0.0526
AACTTTGG | -0.0393
ATGTTGAG | 0.035

Sequence | PBM E-score
ACCACATC | 0.065
GCAATTCC | -0.0691
CCAAATCG | -0.103
GGGGTACA | -0.0329
ACAATACC | 0.291
CCTCAGAC | -0.149
AACAGGTG | 0.0236
CCTTCAGC | -0.121
CAGACATA | -0.0103
CCGCGGAG | -0.0834
AAACGGCA | -0.0106
ACTAGCGA | -0.0233
ATACATCA | 0.153
GTCTTCAA | -0.0718
GGGCTCAA | -0.0682
GGATCCAC | -0.117
GATGCCGC | -0.0962
CAGAGGTA | 0.0242
CTAACACC | -0.0699
GGCGTAGA | -0.0443
CGAGCTCG | 0.241
AATTCGCA | 0.229
GATCACGA | -0.0194
CCCTACGG | -0.0955
CGCGTAGC | 0.0481

Sequence | PBM E-score
GACACTAC | -0.136
ATACTCGC | 0.0784
CTAGAATA | 0.0292
GAGCACTA | -0.131
ATCGCAAA | 0.127
GCTAATCA | 0.179
GCTGCCCA | -0.08
AGCGTTGG | -0.185
AAGATGGA | -0.0315
CGAAGTCA | -0.0646
ATTCGCTC | 0.132
GCGCTGGA | 0.0138
TATTGCCA | -0.0524
GATGTTCC | 0.0463
ACAGCTCC | -0.0601
AAATGTAG | -0.00514
TACAATCA | -0.0931
AAGAGATA | -0.0138
ATTCGTAC | 0.155
GATCGACA | 0.00588
ACCCTCCC | 0.255
GTCGCAGA | 0.203
AATCTTGT | 0.116
CGTGCTAA | -0.0191
CCATTTGA | 0.0335

Sequence | PBM E-score
AACGAAGG | -0.14
TCTTCGCA | 0.139
CTTCAGTC | -0.122
TACTCCAA | 0.0819
ACGTCAAC | -0.0313
ATTGAGTG | 0.0354
GATCAGGC | -0.14
TCCAAGGA | -0.171
AGTCTAGA | -0.16
ACGCACTA | -0.00707
CTTTGCCC | -0.226
AGCGCGGA | 0.102
ATCTATTA | 0.163
AGACCCCC | -0.304
CCCCTGAA | 0.356
ATGTATGG | -0.051
CATCCAAG | 0.00236
AAGGGTAG | 0.0465
CCTTCAAG | -0.0921
AGCACGAT | 0.135
GCTAGTTA | 0.0841
CAACTCAC | 0.128
GCAGAATA | 0.104
ACGAGCCC | 0.0528
TGAACAAA | 0.244

Sequence | PBM E-score
ATACCGAA | 0.0263
ATTCTATG | 0.0635
AGGATATG | 0.192
ATACGGGC | -0.114
CAGTCTGG | -0.268
ATGTTCAA | -0.00349
CGAAAGCC | -0.19
CAGGTTGG | 0.0184
ACAATGCA | 0.152
CCGCACGG | -0.045
CCGCCTTA | -0.152
CGTGGTTA | -0.104
AGTCCGTC | 0.0768
AAGACACG | 0.168
AGTACTAA | 0.11
AAGTTCCT | -0.0711
AGATTCCA | 0.136
ATAGTAGA | 0.102
ACGATGCA | 0.0715
AGTATCTG | -0.0103
ACTGTTGA | -0.102
TATATGAA | 0.087
GAGGTATA | 0.0307
GGCCAACC | 0.0203
TATACGAA | 0.122

Sequence | PBM E-score
AATGATAA | 0.179
ACACTCCT | -0.0582
AATTCCAC | 0.191
ATGGGGCG | 0.187
TCTGGCCA | 0.0291
GCGATACC | -0.0961
AGAACTGA | 0.0121
CCTTAGCA | 0.0481
ATCGACGC | 0.16
GGCCAGAC | -0.0951
ATTTAGTA | 0.274
GCGGTTGA | 0.09
GGATTAAA | 0.0406
AAACGTAT | 0.127
AAATGTGG | 0.151
GCGCAAAA | 0.155
ACCGTAAA | -0.00298
ACTGGCAA | -0.0546
AGGGAGTA | -0.118
CACGTTGC | -0.168
AAGTTCAT | 0.113
GAGCGCGC | 0.263
GGACCCCC | -0.144
AGACCACC | -0.189
ACTTGCAC | 0.133

Sequence | PBM E-score
AGGTCGAC | 0.171
AGGCGGCC | -0.115
TACGCATA | 0.171
TATCGAAA | 0.255
CTTGTCGC | 0.19
ACTGAGAT | -0.0779
AGGGAACA | 0.0207
AACTAAAG | 0.0714
CTTGGGCC | -0.0162
AAATATGG | 0.00101
ATCAAGGG | 0.221
GTATCAAC | 0.0324
CAGGATTA | -0.0705
ACGACGAT | -0.00018
CGAGCACC | -0.126
CCTGACTC | -0.0375
CAGAGATG | -0.0114
CATCTTCA | -0.119
AGACCTTC | -0.106
